{"sequences": {"note": "Chains of the proteins cited; added tags and fusions are not shown. Lines headed by an entry give the natural chain unless they say otherwise; changes in a name come on top.", "UniProt Q07812": "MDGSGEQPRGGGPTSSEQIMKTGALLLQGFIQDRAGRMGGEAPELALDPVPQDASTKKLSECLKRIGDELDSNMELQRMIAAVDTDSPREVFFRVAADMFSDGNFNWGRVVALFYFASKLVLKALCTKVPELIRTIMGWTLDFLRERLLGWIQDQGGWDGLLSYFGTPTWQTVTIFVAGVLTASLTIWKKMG"}, "source": "paper PMC10000386", "binders": {"B1": {"name": "Noxa (protein, UniProt Q13794 1-54)", "chain": "MPGKKARKNAQPSPARAPAELEVECATQLRRFGDKLNFRQKLLNLISKLFCSGT"}}, "target": "Bax ΔBH3 (human) (UniProt Q07812)", "assay": "split reporter; BiFC: VN- and VC-Venus fragment fusions (N-terminal) co-transfected in HeLa cells with an mRFP vector, 30 µM Z-VAD-fmk, 37 °C, 24 h; Venus/mRFP mean fluorescence ratio of mRFP-positive cells by flow cytometry; in some experiments ABT-199, A-1155463 or S63845 added 1 h after transfection (reduced the complexes of Bcl-2, Bcl-XL or Mcl-1 with Bim, Puma and Noxa)", "note": "Results are given in words; binding and its absence hold for the method and conditions named. In cells and extracts the contact can be indirect. Binding calls can cover weak binding; strength is not graded here.", "data": [{"binder": "B1", "values": [{"measurement": "binding", "result": "binds"}]}]}
